No constants are given. Whether binding was seen depends on the method and setting. Binding seen in cells or lysates may run through a third protein. These calls come from enrichment with a bait or labelling near it, and not all partners need be listed.

This test addresses Flag-RUNX2 (WT) (human). Briefly: affinity purification with mass spectrometry; Flag-RUNX2-WT (1 ug plasmid) or Flag-RUNX2-Tri-A (2 ug plasmid) in HEK293T cells, 48 h; Flag-conjugated agarose, eluted with Flag peptide; eluates to mass spectrometry.

B1: USP47 (endogenous, HEK293T) (enzyme, UniProt Q96K76 1-1375)
chain: MVPGEENQLVPKEDVFWRCRQNIFDEMKKKFLQIENAAEEPRVLCIIQDTTNSKTVNERITLNLPASTPVRKLFEDVANKVGYINGTFDLVWGNGINTADMAPLDHTSDKSLLDANFEPGKKNFLHLTDKDGEQPQILLEDSSAGEDSVHDRFIGPLPREGSGGSTSDYVSQSYSYSSILNKSETGYVGLVNQAMTCYLNSLLQTLFMTPEFRNALYKWEFEESEEDPVTSIPYQLQRLFVLLQTSKKRAIETTDVTRSFGWDSSEAWQQHDVQELCRVMFDALEQKWKQTEQADLINELYQGKLKDYVRCLECGYEGWRIDTYLDIPLVIRPYGSSQAFASVEEALHAFIQPEILDGPNQYFCERCKKKCDARKGLRFLHFPYLLTLQLKRFDFDYTTMHRIKLNDRMTFPEELDMSTFIDVEDEKSPQTESCTDSGAENEGSCHSDQMSNDFSNDDGVDEGICLETNSGTEKISKSGLEKNSLIYELFSVMVHSGSAAGGHYYACIKSFSDEQWYSFNDQHVSRITQEDIKKTHGGSSGSRGYYSSAFASSTNAYMLIYRLKDPARNAKFLEVDEYPEHIKNLVQKERELEEQEKRQREIERNTCKIKLFCLHPTKQVMMENKLEVHKDKTLKEAVEMAYKMMDLEEVIPLDCCRLVKYDEFHDYLERSYEGEEDTPMGLLLGGVKSTYMFDLLLETRKPDQVFQSYKPGEVMVKVHVVDLKAESVAAPITVRAYLNQTVTEFKQLISKAIHLPAETMRIVLERCYNDLRLLSVSSKTLKAEGFFRSNKVFVESSETLDYQMAFADSHLWKLLDRHANTIRLFVLLPEQSPVSYSKRTAYQKAGGDSGNVDDDCERVKGPVGSLKSVEAILEESTEKLKSLSLQQQQDGDNGDSSKSTETSDFENIESPLNERDSSASVDNRELEQHIQTSDPENFQSEERSDSDVNNDRSTSSVDSDILSSSHSSDTLCNADNAQIPLANGLDSHSITSSRRTKANEGKKETWDTAEEDSGTDSEYDESGKSRGEMQYMYFKAEPYAADEGSGEGHKWLMVHVDKRITLAAFKQHLEPFVGVLSSHFKVFRVYASNQEFESVRLNETLSSFSDDNKITIRLGRALKKGEYRVKVYQLLVNEQEPCKFLLDAVFAKGMTVRQSKEELIPQLREQCGLELSIDRFRLRKKTWKNPGTVFLDYHIYEEDINISSNWEVFLEVLDGVEKMKSMSQLAVLSRRWKPSEMKLDPFQEVVLESSSVDELREKLSEISGIPLDDIEFAKGRGTFPCDISVLDIHQDLDWNPKVSTLNVWPLYICDDGAVIFYRDKTEELMELTDEQRNELMKKESSRLQKTGHRVTYSPRKEKALKIYLDGAPNKDLTQD
As for B1, the binding entry is given as “binds”.
